Measured values reported in article PMC3315461.
These are yes or no findings as the source states them, for the method shown. Binding seen in cells or lysates may run through a third protein. Some binding calls cover weakened binding; strength is not graded here. Sequences can lack the tags named with a protein.

Amino acid sequences for entries named in this document (tags omitted).
UniProt Q07832: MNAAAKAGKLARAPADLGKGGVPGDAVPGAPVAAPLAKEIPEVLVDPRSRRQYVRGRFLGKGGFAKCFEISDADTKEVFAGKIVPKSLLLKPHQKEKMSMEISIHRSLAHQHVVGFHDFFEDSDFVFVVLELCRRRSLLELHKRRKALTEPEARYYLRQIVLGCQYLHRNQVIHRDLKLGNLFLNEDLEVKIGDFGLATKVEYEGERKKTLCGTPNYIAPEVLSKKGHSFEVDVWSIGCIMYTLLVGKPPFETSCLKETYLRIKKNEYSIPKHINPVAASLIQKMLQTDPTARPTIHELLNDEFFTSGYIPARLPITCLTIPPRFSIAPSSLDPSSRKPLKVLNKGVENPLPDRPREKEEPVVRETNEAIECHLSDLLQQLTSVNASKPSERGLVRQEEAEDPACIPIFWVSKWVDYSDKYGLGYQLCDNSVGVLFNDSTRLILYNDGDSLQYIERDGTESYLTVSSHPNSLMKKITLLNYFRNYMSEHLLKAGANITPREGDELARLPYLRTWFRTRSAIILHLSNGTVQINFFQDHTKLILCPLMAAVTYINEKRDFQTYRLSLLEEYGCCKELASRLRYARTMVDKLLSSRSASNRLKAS
UniProt P53350: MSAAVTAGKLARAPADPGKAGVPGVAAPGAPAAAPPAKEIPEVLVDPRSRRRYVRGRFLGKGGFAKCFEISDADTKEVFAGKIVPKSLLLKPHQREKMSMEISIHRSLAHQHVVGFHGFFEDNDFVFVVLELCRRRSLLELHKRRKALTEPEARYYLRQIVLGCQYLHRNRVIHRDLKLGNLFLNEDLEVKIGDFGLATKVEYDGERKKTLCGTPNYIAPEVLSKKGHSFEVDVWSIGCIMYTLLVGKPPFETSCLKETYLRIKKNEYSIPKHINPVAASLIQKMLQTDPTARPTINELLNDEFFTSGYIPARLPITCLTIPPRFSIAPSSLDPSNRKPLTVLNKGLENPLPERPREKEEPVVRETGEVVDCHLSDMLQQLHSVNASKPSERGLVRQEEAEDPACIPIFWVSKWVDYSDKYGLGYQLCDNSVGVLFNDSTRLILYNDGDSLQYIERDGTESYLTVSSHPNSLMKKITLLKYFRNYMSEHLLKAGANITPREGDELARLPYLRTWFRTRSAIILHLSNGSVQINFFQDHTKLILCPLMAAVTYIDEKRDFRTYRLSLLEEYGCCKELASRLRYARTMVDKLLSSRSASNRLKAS

Legend:
[1] = target: T1, FLAG-tagged full-length Treacle (mouse Tcof1) (mouse) (UniProt O08784); assay: co-IP; as the co-IP of FLAG-tagged Treacle and HA-tagged Plk1, but with cell lysate prepared from asynchronized cells
T1 sequence: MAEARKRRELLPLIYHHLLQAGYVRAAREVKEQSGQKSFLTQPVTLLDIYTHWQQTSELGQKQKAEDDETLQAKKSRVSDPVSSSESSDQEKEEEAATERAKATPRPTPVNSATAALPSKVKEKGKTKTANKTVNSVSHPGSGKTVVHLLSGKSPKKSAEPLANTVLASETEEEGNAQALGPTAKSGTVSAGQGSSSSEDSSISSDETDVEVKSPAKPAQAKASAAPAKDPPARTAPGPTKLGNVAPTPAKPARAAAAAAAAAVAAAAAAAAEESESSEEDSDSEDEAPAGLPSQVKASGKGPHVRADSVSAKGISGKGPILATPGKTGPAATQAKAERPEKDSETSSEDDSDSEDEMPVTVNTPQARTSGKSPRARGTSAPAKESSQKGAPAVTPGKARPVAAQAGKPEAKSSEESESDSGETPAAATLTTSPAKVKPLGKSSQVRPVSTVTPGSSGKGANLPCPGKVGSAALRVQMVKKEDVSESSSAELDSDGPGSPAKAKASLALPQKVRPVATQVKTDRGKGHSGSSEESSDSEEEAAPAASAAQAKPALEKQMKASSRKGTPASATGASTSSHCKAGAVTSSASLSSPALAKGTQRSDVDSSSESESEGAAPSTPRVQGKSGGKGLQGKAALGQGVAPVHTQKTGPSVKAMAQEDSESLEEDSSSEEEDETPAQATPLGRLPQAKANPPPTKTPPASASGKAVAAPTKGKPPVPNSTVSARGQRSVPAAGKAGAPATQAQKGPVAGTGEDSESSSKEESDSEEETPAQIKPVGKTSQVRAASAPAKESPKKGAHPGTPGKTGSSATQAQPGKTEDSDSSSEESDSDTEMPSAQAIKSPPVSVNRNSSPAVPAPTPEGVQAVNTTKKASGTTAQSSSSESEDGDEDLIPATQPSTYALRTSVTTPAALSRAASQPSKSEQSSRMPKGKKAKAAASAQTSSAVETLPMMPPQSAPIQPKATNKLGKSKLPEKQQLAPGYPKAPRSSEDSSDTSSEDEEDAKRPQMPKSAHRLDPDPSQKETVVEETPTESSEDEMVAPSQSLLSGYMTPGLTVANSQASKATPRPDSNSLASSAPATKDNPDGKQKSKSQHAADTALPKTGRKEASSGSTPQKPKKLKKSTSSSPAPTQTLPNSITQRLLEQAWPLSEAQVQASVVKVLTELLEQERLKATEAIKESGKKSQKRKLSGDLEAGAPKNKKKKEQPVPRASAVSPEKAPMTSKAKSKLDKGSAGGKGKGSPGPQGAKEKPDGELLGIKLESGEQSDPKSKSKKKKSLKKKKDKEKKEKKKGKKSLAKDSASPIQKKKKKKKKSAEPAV

[2] = target: T1, FLAG-tagged full-length Treacle (mouse Tcof1) (mouse); assay: co-IP; HeLa cells transfected, synchronized by thymidine block, released 5 h, nocodazole (50 ng/ml) 14 h to obtain mitotic cells; lysis in 50 mM Tris-HCl pH 7.5, 150 mM NaCl, 1% NP-40, 5 mM EDTA; anti-FLAG agarose beads at 4°C overnight; elution with FLAG peptide; western blot with anti-HA, anti-PLK1 and anti-FLAG
[3] = target: T2, FLAG-tagged N-terminal part of Treacle (mouse Tcof1, amino acids 1-452) (mouse) (UniProt O08784); assay: as above
T2 sequence: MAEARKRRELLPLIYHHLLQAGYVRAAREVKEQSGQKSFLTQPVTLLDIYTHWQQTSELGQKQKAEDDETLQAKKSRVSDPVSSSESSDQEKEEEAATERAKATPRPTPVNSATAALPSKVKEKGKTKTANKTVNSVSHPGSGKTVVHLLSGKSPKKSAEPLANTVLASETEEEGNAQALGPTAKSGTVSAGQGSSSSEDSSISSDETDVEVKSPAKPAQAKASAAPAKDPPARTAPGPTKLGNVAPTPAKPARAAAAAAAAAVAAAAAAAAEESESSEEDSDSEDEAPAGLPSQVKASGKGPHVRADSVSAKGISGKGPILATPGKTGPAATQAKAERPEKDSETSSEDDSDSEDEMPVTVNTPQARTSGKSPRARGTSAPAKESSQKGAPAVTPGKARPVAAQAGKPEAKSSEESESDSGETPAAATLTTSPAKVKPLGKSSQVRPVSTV

Row | Substance | binding [1] | binding [2] | binding [3]
1 | HA-tagged full-length Plk1 (mouse) (from UniProt Q07832 1-603) | no binding (condition: lysate from asynchronized cells) | binds | –
2 | endogenous PLK1 of HeLa cells (from UniProt P53350 1-603) | – | binds | binds
